Source: the supplement of paper PMC12819154, “High-throughput peptide-centric local stability assay extends protein–ligand identification to membrane proteins, tissues and bacteria” (Nature Structural & Molecular Biology, 2025)
The list shows a part of the results. Most entries show no effect beyond the scatter of the controls.

Amino acid sequences for entries named in this document (tags omitted). A change or cut given only in a name is not applied to a line headed by its entry.
UniProt Q9HCU8: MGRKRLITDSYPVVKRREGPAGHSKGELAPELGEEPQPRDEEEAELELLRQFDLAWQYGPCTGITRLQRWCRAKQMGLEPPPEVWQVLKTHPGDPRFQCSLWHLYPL
UniProt Q9HA77: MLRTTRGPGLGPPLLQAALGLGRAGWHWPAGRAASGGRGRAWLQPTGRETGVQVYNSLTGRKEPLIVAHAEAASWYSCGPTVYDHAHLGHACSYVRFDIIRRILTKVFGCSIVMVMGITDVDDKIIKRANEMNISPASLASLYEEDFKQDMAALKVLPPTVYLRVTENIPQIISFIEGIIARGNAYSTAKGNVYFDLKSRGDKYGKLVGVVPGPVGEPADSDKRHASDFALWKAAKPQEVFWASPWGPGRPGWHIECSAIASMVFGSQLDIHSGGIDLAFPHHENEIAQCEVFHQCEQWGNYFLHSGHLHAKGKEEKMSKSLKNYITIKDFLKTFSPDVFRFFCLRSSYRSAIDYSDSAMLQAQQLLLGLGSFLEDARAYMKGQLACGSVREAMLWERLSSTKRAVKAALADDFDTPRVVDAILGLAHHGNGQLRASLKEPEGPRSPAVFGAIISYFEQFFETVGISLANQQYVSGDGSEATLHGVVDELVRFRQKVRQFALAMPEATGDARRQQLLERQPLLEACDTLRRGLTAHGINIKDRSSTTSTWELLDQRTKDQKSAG
UniProt Q9H840: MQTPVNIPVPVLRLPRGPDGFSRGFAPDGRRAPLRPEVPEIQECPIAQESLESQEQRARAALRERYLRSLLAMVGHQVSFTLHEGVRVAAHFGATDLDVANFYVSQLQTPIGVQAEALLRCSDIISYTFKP
UniProt Q9HCK0: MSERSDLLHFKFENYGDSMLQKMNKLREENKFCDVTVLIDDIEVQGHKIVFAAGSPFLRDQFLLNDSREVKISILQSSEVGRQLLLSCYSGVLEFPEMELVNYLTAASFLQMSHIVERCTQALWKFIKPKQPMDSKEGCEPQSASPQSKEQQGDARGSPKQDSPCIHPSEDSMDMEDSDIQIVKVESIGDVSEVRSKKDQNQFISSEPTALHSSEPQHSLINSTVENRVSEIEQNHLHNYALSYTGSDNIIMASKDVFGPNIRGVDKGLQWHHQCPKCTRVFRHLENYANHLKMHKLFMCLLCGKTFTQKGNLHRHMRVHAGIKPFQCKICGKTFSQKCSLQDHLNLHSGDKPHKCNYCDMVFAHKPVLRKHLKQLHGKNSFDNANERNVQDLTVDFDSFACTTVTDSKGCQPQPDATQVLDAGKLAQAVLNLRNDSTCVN
UniProt Q9NP50: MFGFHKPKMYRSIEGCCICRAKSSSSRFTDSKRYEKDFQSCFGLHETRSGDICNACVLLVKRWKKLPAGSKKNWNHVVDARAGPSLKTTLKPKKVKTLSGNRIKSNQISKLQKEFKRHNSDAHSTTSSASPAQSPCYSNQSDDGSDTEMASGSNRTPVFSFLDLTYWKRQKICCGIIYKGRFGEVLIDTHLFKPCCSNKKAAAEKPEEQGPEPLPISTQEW
UniProt Q9NQ29: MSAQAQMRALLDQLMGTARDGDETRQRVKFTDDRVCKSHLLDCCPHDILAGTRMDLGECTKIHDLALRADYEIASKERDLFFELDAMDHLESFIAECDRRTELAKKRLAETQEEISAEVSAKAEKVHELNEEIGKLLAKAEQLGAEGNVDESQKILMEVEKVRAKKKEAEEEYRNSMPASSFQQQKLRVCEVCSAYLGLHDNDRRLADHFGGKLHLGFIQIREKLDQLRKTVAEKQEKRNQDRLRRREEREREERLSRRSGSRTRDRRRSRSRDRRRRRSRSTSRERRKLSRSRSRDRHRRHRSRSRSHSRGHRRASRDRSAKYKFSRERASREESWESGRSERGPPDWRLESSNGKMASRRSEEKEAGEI
UniProt Q9NPJ4: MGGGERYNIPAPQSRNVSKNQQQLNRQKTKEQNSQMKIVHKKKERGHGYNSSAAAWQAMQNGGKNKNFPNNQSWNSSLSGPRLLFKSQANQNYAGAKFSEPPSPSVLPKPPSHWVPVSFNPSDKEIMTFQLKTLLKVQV
UniProt Q9H6H4: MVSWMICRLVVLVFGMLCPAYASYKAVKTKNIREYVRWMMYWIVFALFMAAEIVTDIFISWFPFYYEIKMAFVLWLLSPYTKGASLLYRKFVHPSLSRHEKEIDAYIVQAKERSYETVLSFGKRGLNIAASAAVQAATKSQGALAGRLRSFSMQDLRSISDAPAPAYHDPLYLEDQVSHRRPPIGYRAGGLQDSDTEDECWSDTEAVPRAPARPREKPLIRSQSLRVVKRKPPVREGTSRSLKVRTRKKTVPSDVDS
UniProt Q9HC35: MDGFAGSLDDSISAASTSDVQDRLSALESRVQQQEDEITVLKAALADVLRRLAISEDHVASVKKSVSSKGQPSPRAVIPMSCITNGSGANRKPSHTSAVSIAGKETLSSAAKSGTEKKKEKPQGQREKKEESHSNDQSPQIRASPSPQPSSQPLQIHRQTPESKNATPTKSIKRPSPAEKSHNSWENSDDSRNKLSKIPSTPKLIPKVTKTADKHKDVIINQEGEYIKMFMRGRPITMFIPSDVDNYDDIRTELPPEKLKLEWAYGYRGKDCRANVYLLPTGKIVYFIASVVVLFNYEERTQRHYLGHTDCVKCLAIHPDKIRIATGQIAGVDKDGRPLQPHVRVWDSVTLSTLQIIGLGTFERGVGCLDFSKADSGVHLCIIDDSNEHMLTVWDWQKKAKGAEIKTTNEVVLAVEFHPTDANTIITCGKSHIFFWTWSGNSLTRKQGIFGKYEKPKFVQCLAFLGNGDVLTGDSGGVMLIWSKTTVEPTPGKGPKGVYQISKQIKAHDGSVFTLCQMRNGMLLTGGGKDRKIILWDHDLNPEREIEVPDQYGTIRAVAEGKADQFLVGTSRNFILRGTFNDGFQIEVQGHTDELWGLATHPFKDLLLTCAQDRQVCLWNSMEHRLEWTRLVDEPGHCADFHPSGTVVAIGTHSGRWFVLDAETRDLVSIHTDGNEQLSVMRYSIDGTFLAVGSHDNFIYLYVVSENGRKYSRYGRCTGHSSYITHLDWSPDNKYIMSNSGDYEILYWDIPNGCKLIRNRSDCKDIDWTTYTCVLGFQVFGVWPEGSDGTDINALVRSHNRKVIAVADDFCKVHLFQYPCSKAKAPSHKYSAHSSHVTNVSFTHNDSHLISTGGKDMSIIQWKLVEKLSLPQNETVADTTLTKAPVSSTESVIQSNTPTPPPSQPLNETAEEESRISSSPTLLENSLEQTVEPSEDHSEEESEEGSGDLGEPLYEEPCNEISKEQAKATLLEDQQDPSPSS
UniProt Q9HC98: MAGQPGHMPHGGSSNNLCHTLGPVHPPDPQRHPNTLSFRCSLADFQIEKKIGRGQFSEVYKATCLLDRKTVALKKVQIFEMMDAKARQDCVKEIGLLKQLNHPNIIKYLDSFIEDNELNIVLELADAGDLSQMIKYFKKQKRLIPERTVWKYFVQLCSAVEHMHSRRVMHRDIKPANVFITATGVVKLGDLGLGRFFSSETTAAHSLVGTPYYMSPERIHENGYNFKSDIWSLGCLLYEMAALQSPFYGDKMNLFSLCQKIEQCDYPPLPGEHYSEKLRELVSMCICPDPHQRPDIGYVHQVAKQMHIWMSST
UniProt Q9NPI8: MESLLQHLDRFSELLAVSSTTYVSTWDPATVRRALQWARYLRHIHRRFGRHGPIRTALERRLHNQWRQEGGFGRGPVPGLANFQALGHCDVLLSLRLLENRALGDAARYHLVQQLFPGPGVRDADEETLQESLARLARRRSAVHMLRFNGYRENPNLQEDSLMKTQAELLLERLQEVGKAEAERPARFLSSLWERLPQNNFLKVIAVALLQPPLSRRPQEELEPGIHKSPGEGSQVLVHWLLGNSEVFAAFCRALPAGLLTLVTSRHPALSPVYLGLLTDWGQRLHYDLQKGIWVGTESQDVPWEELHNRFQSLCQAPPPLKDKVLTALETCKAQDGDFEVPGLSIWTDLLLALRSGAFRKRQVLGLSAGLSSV
UniProt Q9NPE2: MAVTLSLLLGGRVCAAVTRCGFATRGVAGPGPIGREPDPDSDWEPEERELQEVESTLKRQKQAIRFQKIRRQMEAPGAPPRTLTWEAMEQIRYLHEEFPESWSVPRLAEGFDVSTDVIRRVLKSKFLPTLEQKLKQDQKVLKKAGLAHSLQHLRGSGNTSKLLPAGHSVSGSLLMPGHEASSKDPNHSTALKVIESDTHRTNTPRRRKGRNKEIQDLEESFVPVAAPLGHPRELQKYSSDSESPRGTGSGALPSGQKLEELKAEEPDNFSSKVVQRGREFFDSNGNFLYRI
UniProt Q9HCN8: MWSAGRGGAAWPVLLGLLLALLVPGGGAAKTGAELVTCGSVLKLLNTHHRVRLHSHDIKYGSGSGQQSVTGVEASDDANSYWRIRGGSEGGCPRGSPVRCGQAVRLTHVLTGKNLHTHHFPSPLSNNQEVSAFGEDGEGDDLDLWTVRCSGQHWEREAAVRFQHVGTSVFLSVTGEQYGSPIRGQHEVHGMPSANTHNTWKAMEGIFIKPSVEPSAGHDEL
UniProt Q9H7Z6: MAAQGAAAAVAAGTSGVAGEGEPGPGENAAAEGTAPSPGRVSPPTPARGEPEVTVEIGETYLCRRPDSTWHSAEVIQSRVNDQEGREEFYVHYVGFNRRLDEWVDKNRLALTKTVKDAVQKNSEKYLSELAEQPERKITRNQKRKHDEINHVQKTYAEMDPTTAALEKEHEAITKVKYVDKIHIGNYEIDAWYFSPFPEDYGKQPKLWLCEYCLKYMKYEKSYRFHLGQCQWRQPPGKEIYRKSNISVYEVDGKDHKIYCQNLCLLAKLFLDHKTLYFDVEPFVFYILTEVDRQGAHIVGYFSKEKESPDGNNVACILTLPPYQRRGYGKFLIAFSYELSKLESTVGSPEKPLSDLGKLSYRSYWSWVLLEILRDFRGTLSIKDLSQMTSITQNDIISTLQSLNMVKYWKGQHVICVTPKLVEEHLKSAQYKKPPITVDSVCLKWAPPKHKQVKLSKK
UniProt Q9HBZ2, whole entry: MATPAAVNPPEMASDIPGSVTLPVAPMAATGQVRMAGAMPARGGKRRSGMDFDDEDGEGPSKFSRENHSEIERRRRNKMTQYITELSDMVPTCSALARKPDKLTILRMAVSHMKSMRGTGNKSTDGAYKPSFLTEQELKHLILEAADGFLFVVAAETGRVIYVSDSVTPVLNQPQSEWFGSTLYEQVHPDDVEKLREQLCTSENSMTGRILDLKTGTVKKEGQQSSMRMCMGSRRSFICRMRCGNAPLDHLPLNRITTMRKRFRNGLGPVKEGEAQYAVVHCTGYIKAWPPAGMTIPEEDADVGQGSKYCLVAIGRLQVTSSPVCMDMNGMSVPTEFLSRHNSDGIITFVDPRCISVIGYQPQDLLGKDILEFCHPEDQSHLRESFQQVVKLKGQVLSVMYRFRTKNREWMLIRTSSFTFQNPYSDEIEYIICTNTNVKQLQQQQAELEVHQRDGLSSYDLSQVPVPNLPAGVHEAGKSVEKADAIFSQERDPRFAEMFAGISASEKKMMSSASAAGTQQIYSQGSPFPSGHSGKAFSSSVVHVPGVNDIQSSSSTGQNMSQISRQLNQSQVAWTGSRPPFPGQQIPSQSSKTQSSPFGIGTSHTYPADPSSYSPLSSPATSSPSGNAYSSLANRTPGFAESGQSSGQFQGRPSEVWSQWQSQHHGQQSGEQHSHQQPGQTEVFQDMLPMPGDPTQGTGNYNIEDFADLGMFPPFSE
UniProt Q9H832: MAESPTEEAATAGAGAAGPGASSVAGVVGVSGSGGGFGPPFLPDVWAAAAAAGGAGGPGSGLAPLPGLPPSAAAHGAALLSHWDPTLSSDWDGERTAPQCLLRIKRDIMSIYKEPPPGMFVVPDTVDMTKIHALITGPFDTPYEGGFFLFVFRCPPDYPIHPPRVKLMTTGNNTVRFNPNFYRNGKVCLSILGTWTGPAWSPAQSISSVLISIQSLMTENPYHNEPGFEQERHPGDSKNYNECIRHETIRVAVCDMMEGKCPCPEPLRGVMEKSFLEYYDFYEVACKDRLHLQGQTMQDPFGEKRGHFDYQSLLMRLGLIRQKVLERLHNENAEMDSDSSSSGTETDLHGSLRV
UniProt Q9HD64: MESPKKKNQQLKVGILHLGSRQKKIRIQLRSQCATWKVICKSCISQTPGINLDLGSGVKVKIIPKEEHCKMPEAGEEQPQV
UniProt Q9H7C9: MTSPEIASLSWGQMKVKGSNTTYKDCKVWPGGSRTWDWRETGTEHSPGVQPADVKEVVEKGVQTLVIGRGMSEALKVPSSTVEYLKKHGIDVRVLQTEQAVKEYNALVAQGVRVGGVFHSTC
UniProt Q9NQG5: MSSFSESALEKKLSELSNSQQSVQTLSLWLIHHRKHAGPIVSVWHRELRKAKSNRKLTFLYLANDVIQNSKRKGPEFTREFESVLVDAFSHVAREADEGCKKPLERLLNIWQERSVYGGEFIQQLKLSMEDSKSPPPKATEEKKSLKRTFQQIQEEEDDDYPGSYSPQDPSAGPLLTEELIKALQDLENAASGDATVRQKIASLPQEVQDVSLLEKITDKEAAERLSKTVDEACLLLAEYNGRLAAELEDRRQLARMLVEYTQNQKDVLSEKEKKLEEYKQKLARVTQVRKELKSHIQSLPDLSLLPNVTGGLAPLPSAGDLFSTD

compound: CN[C@@H]1C[C@H]2O[C@@](C)([C@@H]1OC)n1c3ccccc3c3c4c(c5c6ccccc6n2c5c31)C(=O)NC4 [staurosporine]; experiment: log2 fold change of tryptic peptide abundance, ligand vs vehicle (limited proteolysis) (log2 ratio); higher = more trypsin-susceptible (destabilized); conditions: ligand concentration: 20 uM; sample: K562 cleared lysate; digestion: 4 min, 22 C (HT-PELSA RT4min, Orbitrap Astral)

Target | log2 fold change
RTN4 (peptide sequence: SDEGHPFR, peptide start residue: 1067) (UniProt Q9NQC3) | 0.128
NMNAT1 (peptide sequence: WTETQDSSQKK, peptide start residue: 129) (UniProt Q9HAN9) | -0.336
POLD4 (peptide sequence: LITDSYPVVK, peptide start residue: 6) (UniProt Q9HCU8) | -0.0319
UniProt Q9NQG6 (peptide sequence: AISAPTSPTR, peptide start residue: 53) | 0.201
ZNF576 (peptide sequence: SPQSPGGNICHLGAPK, peptide start residue: 20) (UniProt Q9H609) | 0.138
CARS2 (peptide sequence: QPLLEACDTLR, peptide start residue: 520) (UniProt Q9HA77) | -0.35
GEMIN7 (peptide sequence: MQTPVNIPVPVLRLPR, peptide start residue: 1) (UniProt Q9H840) | -0.0462
UniProt Q9HCK0 (peptide sequence: LAQAVLNLR, peptide start residue: 426) | -0.0432
UniProt Q9NP50 (peptide sequence: IKSNQISK, peptide start residue: 103) | 0.421
LUC7L (peptide sequence: VCEVCSAYLGLHDNDR, peptide start residue: 189) (UniProt Q9NQ29) | -0.195
UniProt Q9NPJ4 (peptide sequence: NQQQLNR, peptide start residue: 20) | 0.478
SENP3 (peptide sequence: HLALSQPFSFTQQDMPK, peptide start residue: 542) (UniProt Q9H4L4) | 1.01
REEP4 (peptide sequence: SYETVLSFGK, peptide start residue: 114) (UniProt Q9H6H4) | -0.178
EML4 (peptide sequence: SHNSWENSDDSR, peptide start residue: 181) (UniProt Q9HC35) | -0.243
NEK6 (peptide sequence: HPNTLSFR, peptide start residue: 32) (UniProt Q9HC98) | 0.435
FANCF (peptide sequence: YHLVQQLFPGPGVR, peptide start residue: 109) (UniProt Q9NPI8) | 0.262
NGRN (peptide sequence: GREFFDSNGNFLYRI, peptide start residue: 277) (UniProt Q9NPE2) | -0.259
ALG13 (peptide sequence: IESLGYNR, peptide start residue: 29) (UniProt Q9NP73) | 0.118
TANC2 (peptide sequence: TQQYPHLHQQNR, peptide start residue: 1855) (UniProt Q9HCD6) | -0.652

Single values from the results shown:
NEK6 (peptide sequence: HPNTLSFR, peptide start residue: 32) (UniProt Q9HC98) | log2 fold change: 0.435
UniProt Q9NQG6 (peptide sequence: AISAPTSPTR, peptide start residue: 53) | log2 fold change: 0.201
REEP4 (peptide sequence: SYETVLSFGK, peptide start residue: 114) (UniProt Q9H6H4) | log2 fold change: -0.178

(cont.)

Target | log2 fold change
UniProt Q9H9G7 (peptide sequence: SFFSAPEGYDHPLGGGR, peptide start residue: 181) | 0.477
UniProt Q9H5V7 (peptide sequence: CELCSFR, peptide start residue: 140) | -0.369
PIDD1 (peptide sequence: LLVLHSNLLASVPADLAR, peptide start residue: 244) (UniProt Q9HB75) | 0.332
TFB2M (peptide sequence: LYLIQMIPR, peptide start residue: 296) (UniProt Q9H5Q4) | 0.378
ARMC7 (peptide sequence: QAHSALGIPLPR, peptide start residue: 180) (UniProt Q9H6L4) | -0.243
SDF2L1 (peptide sequence: LTHVLTGK, peptide start residue: 106) (UniProt Q9HCN8) | 0.25
GOLPH3L (peptide sequence: GGILIELAMR, peptide start residue: 77) (UniProt Q9H4A5) | -0.195
UniProt Q9H7Z6 (peptide sequence: LVEEHLK, peptide start residue: 421) | 0.289
COQ10B (peptide sequence: ITAPLINK, peptide start residue: 67) (UniProt Q9H8M1) | 0.313
UniProt Q9HBZ2 (peptide sequence: ENHSEIER, peptide start residue: 92) | -0.199
RC3H2 (peptide sequence: SVQELTIVLQR, peptide start residue: 330) (UniProt Q9HBD1) | 0.484
UBE2Z (peptide sequence: TAPQCLLR, peptide start residue: 96) (UniProt Q9H832) | 0.181
GOPC (peptide sequence: SQGVGPIRK, peptide start residue: 280) (UniProt Q9HD26) | 0.674
UniProt Q9HCE7 (peptide sequence: IGTGGSVVDCR, peptide start residue: 143) | 0.422
XAGE1A (peptide sequence: EEHCKMPEAGEEQPQV, peptide start residue: 66) (UniProt Q9HD64) | 0.126
UniProt Q9H8L6 (peptide sequence: PEPDSLQAR, peptide start residue: 364) | -0.0382
UniProt Q9H7C9 (peptide sequence: GMSEALKVPSSTVEYLKK, peptide start residue: 70) | 0.467
RPRD1B (peptide sequence: LTFLYLANDVIQNSKR, peptide start residue: 57) (UniProt Q9NQG5) | 0.49
